The list shows only some results of the screen, not a fair sample: it is rich in T/C values a quarter to a half above the control, in often repeated tests (any T/C) and in doses without a T/C. Further doses and runs are listed elsewhere. T/C gives the treated animals as a percentage of the vehicle group. Schedules are NCI's codes, taken here to give the interval after Q, in days (D) or hours (H), and the number of doses after X. Some entries were tested several times; the values are given in rising order. Some T/C values are followed by the survivors on the day toxicity was checked, most often the fifth; where none is given, no animal had died by that day. Some doses have a count of surviving animals in place of a T/C: the source holds a T/C of zero for them, seemingly a mark for toxic or unscored doses. Counts of survivors are from the toxicity check (mostly the fifth day) where no day follows; animals may have died later.

Experimental findings from PubChem BioAssay AID206 (DTP/NCI, 2004) are described below.

This assay concerns nude mice, HT29 intrarenal xenograft, tumor weight T/C. Briefly: NCI In Vivo Anticancer Drug Screen. Data for tumor model HT29;CX-1 Human Adenocarcinoma (MER+) (intrarenal inoculation) in NU/NU Swiss (nude) mice. To be noted: T/C endpoint: mean tumor weight change, higher T/C = larger tumour. An outline of the steps: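 Compounds were given to mice carrying transplantable tumors; a vehicle-dosed group served as control. The endpoint measured in each group was compared as a T/C quotient.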

In the case of `ClC1=C(Cl)C(Cl)=C(Cl)C1=Cc1ccccc1`, the T/C is, setting by setting: (dose: 25.0 mg/kg/injection, schedule: Q04DX004 (sc), vehicle: saline with Tween-80, evaluated on day 15) 131 % of control; (dose: 100.0 mg/kg/injection, schedule: Q04DX004 (sc), vehicle: saline with Tween-80, evaluated on day 15) 125 % of control; (dose: 200.0 mg/kg/injection, schedule: Q04DX004 (sc), vehicle: saline with Tween-80, evaluated on day 15) 131 % of control.

On to `COc1ccc(CC2C(=O)NC(C)C(=O)N(C)C3C(=O)N(C)C(Cc4ccc(O)c(c4)Oc4ccc(cc4)C3O)C(=O)NC(C)C(=O)NC(C)C(=O)N2C)cc1` (stereo unspecified), for which the T/C (dose: 0.5 mg/kg/injection, schedule: Q01DX010 (sc), vehicle: saline with Tween-80, evaluated on day 11) is 134 % of control. Besides, the survivor count reads like this: (dose: 4.0 mg/kg/injection, schedule: Q01DX010 (sc), vehicle: saline with Tween-80) 0 of 3 on day 11; (dose: 8.0 mg/kg/injection, schedule: Q01DX010 (sc), vehicle: saline with Tween-80) 0 of 3 on day 11.

On to `CC(C)(C)N1CC1CNC(=O)C(=O)NCC1CN1C(C)(C)C` (stereo unspecified), for which the survivor count was 0 of 6 on day 15 (dose: 50.0 mg/kg/injection, schedule: Q04DX004 (sc), vehicle: saline with Tween-80); 0 of 6 on day 15 (dose: 100.0 mg/kg/injection, schedule: Q04DX004 (sc), vehicle: saline with Tween-80); 0 of 6 on day 15 (dose: 200.0 mg/kg/injection, schedule: Q04DX004 (sc), vehicle: saline with Tween-80).

Turning to `COc1ccc(C(N)=O)cc1N=NN(C)C`, the T/C (dose: 37.5 mg/kg/injection, schedule: Q04DX004 (sc), vehicle: Klucel (hydroxypropylcellulose) (HPC), evaluated on day 15) was 128 % of control. For the same compound, the survivor count (dose: 300.0 mg/kg/injection, schedule: Q04DX004 (sc), vehicle: Klucel (hydroxypropylcellulose) (HPC)) was 0 of 5 on day 15 and 0 of 6 on day 15.

Turning to `CO[C@H]1C[C@@H]2CC[C@@H](C)[C@@](O)(O2)C(=O)C(=O)N2CCCC[C@H]2C(=O)O[C@H]([C@H](C)C[C@@H]2CC[C@@H](O)[C@H](OC)C2)CC(=O)[C@H](C)C=C(C)[C@@H](O)[C@@H](OC)C(=O)[C@H](C)C[C@H](C)/C=C/C=C/C=C1C`, the T/C runs as follows: (dose: 100.0 mg/kg/injection, schedule: Q01DX010 (sc), vehicle: saline with Tween-80, evaluated on day 11) 1 [2 of 2 alive on day 11], 29, 42, 63 % of control; (dose: 200.0 mg/kg/injection, schedule: Q01DX010 (sc), vehicle: saline with Tween-80, evaluated on day 11) 4 [2 of 2 alive on day 11], 26, 40, 82, 106 % of control; (dose: 400.0 mg/kg/injection, schedule: Q01DX010 (sc), vehicle: saline with Tween-80, evaluated on day 11) 16 [2 of 2 alive on day 11], 25, 43, 71, 81 % of control; (dose: 800.0 mg/kg/injection, schedule: Q01DX010 (sc), vehicle: saline with Tween-80, evaluated on day 11) 17, 36, 90 % of control. Besides, where the note is “dose: 800.0 mg/kg/injection, schedule: Q01DX010 (sc), vehicle: saline with Tween-80”, the survivor count was 1 of 2 on day 11.

On to `CC[C@]1(O)C[C@H]2CN(CCc3c([nH]c4ccccc34)[C@@](C(=O)OC)(c3cc4c(cc3OC)N(C=O)[C@H]3[C@@](O)(C(=O)OC)[C@H](OC(C)=O)[C@]5(CC)C=CCN6CC[C@]43[C@@H]65)C2)C1`, for which the survivor count by setting is: (dose: 0.5 mg/kg/injection, schedule: Q01DX010 (sc), vehicle: saline) 1 of 3 on day 11; (dose: 1.0 mg/kg/injection, schedule: Q01DX010 (sc), vehicle: saline) 1 of 3 on day 11.

Consider `COc1cccc2c1C(=O)c1c(O)c3c(c(O)c1C2=O)C[C@@](O)(C(C)=O)C[C@@H]3OC1CC(N)C(O)C(C)O1` (stereo partly specified), for which the T/C (dose: 0.5 mg/kg/injection, schedule: Q01DX010 (sc), vehicle: saline, evaluated on day 11) was 134 % of control; the T/C (dose: 1.0 mg/kg/injection, schedule: Q01DX010 (sc), vehicle: saline, evaluated on day 11) is 137 % of control; the T/C (dose: 2.0 mg/kg/injection, schedule: Q01DX010 (sc), vehicle: saline, evaluated on day 11) was 131 % of control. Besides, the survivor count was 0 of 3 on day 11 and 0 of 6 on day 11 (dose: 8.0 mg/kg/injection, schedule: Q01DX010 (sc), vehicle: saline); 0 of 3 on day 11 (dose: 16.0 mg/kg/injection, schedule: Q01DX010 (sc), vehicle: saline).

For `CCCCCCCCCCCCSC1=C(Cl)C(=O)C(OC)=C(OC)C1=O`, the survivor count (dose: 600.0 mg/kg/injection, schedule: Q04DX004 (sc), vehicle: saline with Tween-80) is given as 3 of 6 on day 15.

Consider `CCN(CC)CCOCCO`, for which the T/C (dose: 600.0 mg/kg/injection, schedule: Q04DX004 (sc), vehicle: saline, evaluated on day 15) is 141 % of control. Further, the survivor count (dose: 1200.0 mg/kg/injection, schedule: Q04DX004 (sc), vehicle: saline) is listed as 2 of 6 on day 15.

With `COC(=O)C[C@](O)(CCCC(C)(C)O)C(=O)O[C@@H]1C(OC)=C[C@]23CCCN2CCc2cc4c(cc2[C@H]13)OCO4`, the survivor count runs as follows: (dose: 2.0 mg/kg/injection, schedule: Q01DX010 (sc), vehicle: saline) 0 of 3 on day 11; (dose: 4.0 mg/kg/injection, schedule: Q01DX010 (sc), vehicle: saline) 0 of 3 on day 11.

Turning to `CCOC(=O)C(C)(C)Oc1ccc(Cl)cc1`, the survivor count (dose: 2400.0 mg/kg/injection, schedule: Q04DX004 (sc), vehicle: saline with Tween-80) was 0 of 6 on day 15.

In the case of `CCN(CC)Cc1cc2[nH]c3c4ccc(Cl)cc4ncc3c2cc1OC`, the T/C (dose: 75.0 mg/kg/injection, schedule: Q04DX004 (sc), vehicle: saline with Tween-80, evaluated on day 15) is 130 % of control.

In the case of `C1CCC2[N-]CC3CCCCC3[N-]CC3CCCCC3[N-]CC3CCCCC3[N-]CC2C1.[Cu]` (stereo unspecified), under “dose: 50.0 mg/kg/injection, schedule: Q01DX010 (sc), vehicle: Klucel (hydroxypropylcellulose) (HPC)”, the survivor count was 0 of 3 on day 20.

For `CO[C@H](/C(C)=C/C=C/C(C)=C/c1coc(C)n1)[C@H](C)[C@H]1C[C@@H](O)[C@@]2(C)O[C@H]2/C=C/[C@@H](C)[C@@H]2C[C@@H](CC(=O)O2)C[C@H]2O[C@@H]2C(=O)O1`, the survivor count (dose: 1.0 mg/kg/injection, schedule: Q04DX004 (sc), vehicle: Klucel (hydroxypropylcellulose) (HPC)) was 0 of 6 on day 15.

Regarding `COc1ccc2[nH]c3ccc4cc[n+](CCN5CCC(C6CCN(CC[n+]7ccc8ccc9[nH]c%10ccc(OC)cc%10c9c8c7)CC6)CC5)cc4c3c2c1`, the T/C (dose: 75.0 mg/kg/injection, schedule: Q04DX004 (sc), vehicle: Klucel (hydroxypropylcellulose) (HPC), evaluated on day 15) was 147 % of control.

As for `O=C(O[Si](Cc1ccccc1)(Cc1ccccc1)Cc1ccccc1)N(CCCl)CCCl`, the T/C (dose: 400.0 mg/kg/injection, schedule: Q04DX004 (sc), vehicle: saline with Tween-80, evaluated on day 15) is 133 % of control [5 of 6 alive on day 15]. The survivor count (dose: 800.0 mg/kg/injection, schedule: Q04DX004 (sc), vehicle: saline with Tween-80) is 0 of 6 on day 15.

`O=C(O)CSc1nc(-c2ccccc2)c(-c2ccccc2)n1-c1ccccn1`: the survivor count is, setting by setting: (dose: 500.0 mg/kg/injection, schedule: Q04DX004 (sc), vehicle: water) 0 of 5 on day 15; (dose: 1000.0 mg/kg/injection, schedule: Q04DX004 (sc), vehicle: water) 0 of 5 on day 15.

For `Cc1ccc(S(=O)(=O)NC(=O)C2C(=O)CC3(CCCCC3)CC2=O)cc1`, where the note is “dose: 1200.0 mg/kg/injection, schedule: Q04DX004 (sc), vehicle: Klucel (hydroxypropylcellulose) (HPC), evaluated on day 15”, the T/C was 149 % of control.

In the case of `Nc1ncn(C2CC(O)C(CO)O2)c(=O)n1` (stereo unspecified), the survivor count is on record as 0 of 3 on day 11 (dose: 0.4 mg/kg/injection, schedule: Q01DX010 (sc), vehicle: saline); 0 of 3 on day 11 (dose: 0.8 mg/kg/injection, schedule: Q01DX010 (sc), vehicle: saline); 0 of 3 on day 11 (dose: 1.6 mg/kg/injection, schedule: Q01DX010 (sc), vehicle: saline).

For the compound `COC1/C=C\C=C(/C)C(=O)NC2=CC(=O)C=C(C2=O)C(OC)C(C)CC(OC)C(OC)C(C)/C=C(/C)C1OC(N)=O` (stereo unspecified), the survivor count is 2 of 6 on day 15 and 3 of 6 on day 15 (dose: 4.5 mg/kg/injection, schedule: Q04DX004 (sc), vehicle: Klucel (hydroxypropylcellulose) (HPC)); 0 of 6 on day 15 and 1 of 6 on day 15 (dose: 9.0 mg/kg/injection, schedule: Q04DX004 (sc), vehicle: Klucel (hydroxypropylcellulose) (HPC)); 0 of 6 on day 15 (dose: 18.0 mg/kg/injection, schedule: Q04DX004 (sc), vehicle: Klucel (hydroxypropylcellulose) (HPC)); 0 of 6 on day 15 (dose: 36.0 mg/kg/injection, schedule: Q04DX004 (sc), vehicle: Klucel (hydroxypropylcellulose) (HPC)).

Regarding `C(=N/NC1=NCCN1)/c1c2ccccc2c(/C=N\NC2=NCCN2)c2ccccc12`, the survivor count (dose: 150.0 mg/kg/injection, schedule: Q04DX004 (sc), vehicle: saline) was 2 of 6 on day 15.
